The list shows a part of the results. Most entries show no effect beyond the scatter of the controls.

The chains behind the UniProt entries cited, without tags or fusion partners. Where a name states a change or a piece, a line headed by the entry shows the natural chain unless it says otherwise.
UniProt Q8K010: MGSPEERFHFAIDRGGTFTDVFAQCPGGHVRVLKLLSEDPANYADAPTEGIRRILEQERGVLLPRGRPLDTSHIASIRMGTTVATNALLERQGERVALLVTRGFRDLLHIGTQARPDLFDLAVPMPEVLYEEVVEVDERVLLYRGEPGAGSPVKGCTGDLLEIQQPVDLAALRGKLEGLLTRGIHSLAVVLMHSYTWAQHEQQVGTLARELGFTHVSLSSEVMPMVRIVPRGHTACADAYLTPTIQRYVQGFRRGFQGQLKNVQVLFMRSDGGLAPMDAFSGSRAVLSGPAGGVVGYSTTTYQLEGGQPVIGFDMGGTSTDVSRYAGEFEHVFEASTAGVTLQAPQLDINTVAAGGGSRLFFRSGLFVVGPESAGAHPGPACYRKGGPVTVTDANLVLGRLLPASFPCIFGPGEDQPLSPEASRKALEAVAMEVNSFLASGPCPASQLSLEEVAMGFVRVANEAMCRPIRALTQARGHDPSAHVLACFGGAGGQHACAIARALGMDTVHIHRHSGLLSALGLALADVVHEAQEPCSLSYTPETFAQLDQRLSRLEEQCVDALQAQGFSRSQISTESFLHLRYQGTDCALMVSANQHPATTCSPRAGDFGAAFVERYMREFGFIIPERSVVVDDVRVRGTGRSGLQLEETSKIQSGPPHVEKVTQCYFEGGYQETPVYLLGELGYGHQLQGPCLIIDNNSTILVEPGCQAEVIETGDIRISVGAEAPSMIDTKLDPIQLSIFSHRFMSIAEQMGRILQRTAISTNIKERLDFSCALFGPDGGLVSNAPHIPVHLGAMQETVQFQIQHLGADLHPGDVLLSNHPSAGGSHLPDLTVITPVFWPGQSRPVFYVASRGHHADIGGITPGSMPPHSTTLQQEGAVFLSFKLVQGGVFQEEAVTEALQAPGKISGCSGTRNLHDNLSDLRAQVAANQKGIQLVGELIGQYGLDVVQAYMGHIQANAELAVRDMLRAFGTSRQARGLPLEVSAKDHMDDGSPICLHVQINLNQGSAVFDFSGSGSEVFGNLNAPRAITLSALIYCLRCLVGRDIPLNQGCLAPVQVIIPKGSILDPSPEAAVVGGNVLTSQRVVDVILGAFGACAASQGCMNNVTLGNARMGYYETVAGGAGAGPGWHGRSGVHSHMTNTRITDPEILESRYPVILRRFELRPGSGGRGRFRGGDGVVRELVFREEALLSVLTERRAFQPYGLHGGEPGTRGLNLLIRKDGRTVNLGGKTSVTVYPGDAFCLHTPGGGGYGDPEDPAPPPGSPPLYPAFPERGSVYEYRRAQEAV
UniProt Q8K0Z7: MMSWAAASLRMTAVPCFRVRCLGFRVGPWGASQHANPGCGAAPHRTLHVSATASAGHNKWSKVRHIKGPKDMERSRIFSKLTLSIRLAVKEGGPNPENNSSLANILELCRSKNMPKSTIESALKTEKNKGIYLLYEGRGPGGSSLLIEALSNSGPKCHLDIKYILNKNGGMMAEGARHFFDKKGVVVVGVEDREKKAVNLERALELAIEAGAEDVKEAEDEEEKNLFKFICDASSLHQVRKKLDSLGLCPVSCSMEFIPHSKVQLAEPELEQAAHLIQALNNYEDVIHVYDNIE
UniProt Q8CH18: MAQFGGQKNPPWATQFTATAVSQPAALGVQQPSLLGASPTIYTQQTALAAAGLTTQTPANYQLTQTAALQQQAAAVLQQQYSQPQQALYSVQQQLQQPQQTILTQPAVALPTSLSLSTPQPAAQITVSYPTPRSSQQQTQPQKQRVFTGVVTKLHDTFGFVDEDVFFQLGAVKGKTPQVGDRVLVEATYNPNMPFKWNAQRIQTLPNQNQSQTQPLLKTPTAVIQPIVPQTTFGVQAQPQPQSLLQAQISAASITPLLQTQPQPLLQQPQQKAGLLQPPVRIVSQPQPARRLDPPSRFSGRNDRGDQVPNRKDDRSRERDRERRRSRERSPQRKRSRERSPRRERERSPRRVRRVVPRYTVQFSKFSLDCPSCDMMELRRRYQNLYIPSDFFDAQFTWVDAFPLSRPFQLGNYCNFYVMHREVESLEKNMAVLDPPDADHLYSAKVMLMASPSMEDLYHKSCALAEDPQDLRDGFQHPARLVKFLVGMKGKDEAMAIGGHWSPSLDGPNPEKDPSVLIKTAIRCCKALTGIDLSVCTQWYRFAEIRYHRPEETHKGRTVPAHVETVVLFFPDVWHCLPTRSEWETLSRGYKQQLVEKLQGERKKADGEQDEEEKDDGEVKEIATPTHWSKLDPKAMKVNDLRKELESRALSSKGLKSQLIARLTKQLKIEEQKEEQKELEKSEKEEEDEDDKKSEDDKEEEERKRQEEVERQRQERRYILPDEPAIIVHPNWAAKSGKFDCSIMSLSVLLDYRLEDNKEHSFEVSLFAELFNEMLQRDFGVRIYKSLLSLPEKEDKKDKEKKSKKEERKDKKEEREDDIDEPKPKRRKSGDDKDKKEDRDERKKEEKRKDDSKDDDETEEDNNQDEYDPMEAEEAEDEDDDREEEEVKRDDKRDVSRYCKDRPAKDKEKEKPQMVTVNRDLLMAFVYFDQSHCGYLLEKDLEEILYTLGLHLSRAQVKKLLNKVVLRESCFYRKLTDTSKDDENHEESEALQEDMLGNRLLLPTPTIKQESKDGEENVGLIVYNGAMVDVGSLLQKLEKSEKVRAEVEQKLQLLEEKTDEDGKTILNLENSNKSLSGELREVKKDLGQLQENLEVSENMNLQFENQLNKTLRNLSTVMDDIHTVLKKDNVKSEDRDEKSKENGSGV
UniProt Q8CI03: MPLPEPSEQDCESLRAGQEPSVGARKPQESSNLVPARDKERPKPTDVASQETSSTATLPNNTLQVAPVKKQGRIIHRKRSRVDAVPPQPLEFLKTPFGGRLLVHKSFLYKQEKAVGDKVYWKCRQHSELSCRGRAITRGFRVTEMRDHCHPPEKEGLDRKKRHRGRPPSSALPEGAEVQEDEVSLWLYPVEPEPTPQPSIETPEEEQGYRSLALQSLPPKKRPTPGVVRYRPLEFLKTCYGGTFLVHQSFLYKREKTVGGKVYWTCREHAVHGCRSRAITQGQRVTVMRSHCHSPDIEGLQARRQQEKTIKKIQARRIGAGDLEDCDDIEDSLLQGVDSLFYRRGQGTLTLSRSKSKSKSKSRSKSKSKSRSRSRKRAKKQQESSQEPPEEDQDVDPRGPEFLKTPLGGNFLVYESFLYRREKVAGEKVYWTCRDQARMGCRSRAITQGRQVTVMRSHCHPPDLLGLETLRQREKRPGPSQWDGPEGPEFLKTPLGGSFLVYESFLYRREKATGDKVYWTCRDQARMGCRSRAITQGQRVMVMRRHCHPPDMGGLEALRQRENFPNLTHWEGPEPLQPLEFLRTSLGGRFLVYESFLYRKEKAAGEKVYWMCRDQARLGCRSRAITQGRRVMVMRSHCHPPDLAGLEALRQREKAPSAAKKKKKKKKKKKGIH
UniProt Q8CI43: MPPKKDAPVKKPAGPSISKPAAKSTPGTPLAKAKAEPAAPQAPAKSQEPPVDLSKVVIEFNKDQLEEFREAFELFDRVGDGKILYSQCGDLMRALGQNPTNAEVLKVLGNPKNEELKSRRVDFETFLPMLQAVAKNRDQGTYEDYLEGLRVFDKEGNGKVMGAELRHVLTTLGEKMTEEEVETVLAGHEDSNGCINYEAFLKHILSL

Compound in this test: CN[C@@H]1C[C@H]2O[C@@](C)([C@@H]1OC)n1c3ccccc3c3c4c(c5c6ccccc6n2c5c31)C(=O)NC4 [staurosporine]
The experiment in a line: log2 fold change of tryptic peptide abundance, ligand vs vehicle (limited proteolysis) (log2 ratio); higher = more trypsin-susceptible (destabilized). As to conditions: ligand concentration: 20 uM; sample: mouse liver crude lysate; replicate design: treated separately.
Consider “UniProt Q8K010 (peptide sequence: ELGFTHVSLSSEVMPMVR, peptide start residue: 210)”, for which the log2 fold change came to 0.243.

In the case of “UniProt Q8K0Z7 (peptide sequence: GVVVVGVEDREK, peptide start residue: 184)”, the log2 fold change turned out to be 0.208.

Consider “UniProt Q8CH18 (peptide sequence: NDRGDQVPNR, peptide start residue: 302)”, for which the log2 fold change is -0.87.

Consider “UniProt Q8CI03 (peptide sequence: AGQEPSVGAR, peptide start residue: 16)”, for which the log2 fold change was -0.318.

On to “UniProt Q8CI43 (peptide sequence: AKAEPAAPQAPAK, peptide start residue: 33)”, for which the log2 fold change is 0.317.

Source of the values: the supplement of paper PMC12819154, “High-throughput peptide-centric local stability assay extends protein–ligand identification to membrane proteins, tissues and bacteria” (Nature Structural & Molecular Biology, 2025).
